Data source: PubChem BioAssay AID1259424 (University of Nebraska Medical Center, 2018)

Screen: 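Rank knockdowns across the genome by resemblance to the KSR1 depletion profile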 (primary screen)
System: human HCT116 colon cancer cells
Reagent: siRNA pool against human genes, 50 nM
Measured: 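Six signature mRNAs by branched-DNA multiplex assay, scaled to two housekeeping genes and non-targeting median, log2; matched to mean KSR1 knockdown profile by Pearson correlation and euclidean distance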
Direction: mean correlation with KSR1 profile and KSR1 correlation: higher = expression change more like KSR1 knockdown; mean distance from KSR1 profile: higher = expression change less like KSR1 knockdown
This is an unselected part of about 14,000 reagents. 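Higher correlation or smaller distance means closer resemblance to KSR1 loss; control wells, including KSR1 knockdowns, recur on many plates.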 Not all columns of the deposit are shown. The record does not give: the time to read-out.

target gene	mean correlation with KSR1 profile	mean distance from KSR1 profile	KSR1 correlation, replicate 1
TAGLN (transgelin)	-0.674	2.96	-0.655
SPAG1 (sperm associated antigen 1)	0.457	1.08	0.00458
GPX2 (glutathione peroxidase 2)	0.15	1.33	0.348
FBXO11 (F-box protein 11)	-0.366	2.29	-0.493
RB1 (RB transcriptional corepressor 1)	0.0928	2.13	0.179
GNB3 (G protein subunit beta 3)	0.068	3.01	0.0761
PTGES (prostaglandin E synthase)	-0.616	2.6	-0.64
RNF103 (ring finger protein 103)	0.256	2.01	0.298
GOLGA5 (golgin A5)	0.448	1.96	0.557
ZMYND15 (zinc finger MYND-type containing 15)	0.839	1.35	0.711
GIPC2 (GIPC PDZ domain containing family member 2)	-0.459	1.97	-0.153
GPR85 (G protein-coupled receptor 85)	0.457	1.62	0.427
PM20D2 (peptidase M20 domain containing 2)	0.386	1.24	0.526
ZNF268 (zinc finger protein 268)	-0.288	2.64	0.0591
PLK2 (polo like kinase 2)	0.258	2.62	0.528
TESPA1 (thymocyte expressed, positive selection associated 1)	0.118	1.5	0.247
TBXT (T-box transcription factor T)	0.495	4.3	0.463
ABHD18 (abhydrolase domain containing 18)	0.239	1.74	0.207
MTCP1 (mature T cell proliferation 1)	-0.576	2.78	-0.77
SLC52A1	0.624	2.57	0.607
DAZAP2 (DAZ associated protein 2)	0.68	1.15	0.695
VDAC1 (voltage dependent anion channel 1)	0.07	1.83	-0.0221
PPP2R2B (protein phosphatase 2 regulatory subunit Bbeta)	-0.281	2.2	-0.057
DDX27 (DEAD-box helicase 27)	-0.644	3.82	-0.555
DRC11 (dynein regulatory complex subunit 11)	0.246	1.74	0.347
AMBN (ameloblastin)	-0.254	2.15	-0.208
GOLGA4 (golgin A4)	-0.197	1.46	-0.256
PLSCR4 (phospholipid scramblase 4)	0.31	3.5	0.13
PSMA6 (proteasome 20S subunit alpha 6)	-0.0729	5.01	0.0216
CHDH (choline dehydrogenase)	-0.111	1.84	-0.0489
SNRPA (small nuclear ribonucleoprotein polypeptide A)	-0.292	1.19	-0.488
HDGF (heparin binding growth factor)	-0.0898	1.97	-0.0481
ZYX (zyxin)	-0.133	2.87	0.165
SDCBP (syndecan binding protein)	0.841	0.882	0.766
TMEM168 (transmembrane protein 168)	0.0627	1.68	0.0487
AIG1 (androgen induced 1)	-0.614	2.02	-0.209
SIGLEC8 (sialic acid binding Ig like lectin 8)	-0.24	3.34	-0.33
VKORC1 (vitamin K epoxide reductase complex subunit 1)	0.404	1.56	0.335
BRI3 (brain protein I3)	0.0486	2.79	0.388
ALDH2 (aldehyde dehydrogenase 2 family member)	-0.0195	2.44	0.114
SLC75A1	0.476	4.13	0.537
FGFR3 (fibroblast growth factor receptor 3)	0.454	2.68	0.473
TMEM176A (transmembrane protein 176A)	-0.831	1.81	-0.721
PLEKHF2 (pleckstrin homology and FYVE domain containing 2)	0.19	1.54	0.242
DMRTA2 (DMRT like family A2)	-0.504	2.41	-0.35
ZDHHC6 (zDHHC palmitoyltransferase 6)	-0.162	3.41	-0.313
DUSP3 (dual specificity phosphatase 3)	0.159	1.56	0.18
IMPA2 (inositol monophosphatase 2)	-0.243	2.92	-0.119
CXCL10 (C-X-C motif chemokine ligand 10)	-0.0495	1.66	-0.127
C3 (complement C3)	0.134	2.12	0.169

A few values from the entries so far:
DAZAP2 (DAZ associated protein 2), mean correlation with KSR1 profile: 0.68
HDGF (heparin binding growth factor), mean distance from KSR1 profile = 1.97
Value for IMPA2 (inositol monophosphatase 2) in “mean distance from KSR1 profile”: 2.92
For “mean correlation with KSR1 profile”, PLK2 (polo like kinase 2) is entered as 0.258
Result for TMEM176A (transmembrane protein 176A) under “mean distance from KSR1 profile”: 1.81
ZMYND15 (zinc finger MYND-type containing 15), mean distance from KSR1 profile: 1.35
